The other results are listed elsewhere or left out.
B1: il10ra_site1_sap_16_mot_HHH_b1_01247_af2_000000274_0001_1_19_H_._HHH_b2_06478_af2_0001_0000600022_0000001_0_0001 (protein)
chain: SSSSDAVEFLLRQAIEALKLLVEQGDREKFEHVLRMLENLAEQANDDEVERILRELEEELNSSSS
B2: il10ra_site1_sap_25_mot_HHH_b1_03277_000000286_0001_44_57_H_._HHH_b1_07496_af2_0001_0000400026_0000001_0_0001 (protein)
chain: SSSSSSMHRVYELSRRIAHLIREGDKEEAEKLLEELEEIAEEIGSPHARFLLEVLERMLKSSSSS
B3: il10ra_site1_normal_mot_2c1a291787c6f40772924d4e9068d803_0001_af2_000000222_0001_34_48_H_._HHH_b1_03643_af2_0001_0000200006_0000001_0 (protein)
chain: SSSSSDEEVQQLAARAAARAQRLGDEERVERLFQLRVKLYNEGDPRVEEELEELAREVLESSSSS
B4: il10ra_site1_sap_21_mot_HHH_b2_00277_af2_000000172_0001_1_17_H_._HHH_b1_00860_af2_0001_0000100003_0000001_0_0001 (protein)
chain: SVEERLEELLEEDPDDELVRLILEVLELLKKGDPEEAARLAQEVLRLIYRAGDPELLRLLWEIVS
B5: il10ra_site1_normal_mot_HHH_b2_00345_af2_000000013_0001_42_56_H_._HHH_b1_02372_af2_0001_0000400032_0000002_0 (protein)
chain: SSSSDVEEEAARVAQEVLRIAFRRRDPEVLQEVWELFKRIIREGDPRLLEELEELLEELRSSSSS
B6: il10ra_site1_normal_mot_HHH_b2_00277_af2_000000172_0001_1_17_H_._HHH_b2_00060_0001_0000500039_0000001_0_af2pred_0001 (protein)
chain: SSSSSSEEVRKEVEKLLEEAEHIEDPRELSYVLTRAWAIANRGNDEELKRLVEEVAKRLLSSSSS
B7: il10ra_site1_sap_17_mot_HHH_b2_05984_000000071_0001_38_52_H_._HHH_b1_08005_0001_0000300015_0000002_0_0001 (protein)
chain: SSSSTEAYEVAKRAIEEALKLWREGDDEQAREVLEEAIRIAEELGNWAAVFSLRHLLEVLRSSSS
B8: il10ra_site1_normal_mot_HHH_b2_08186_000000021_0001_43_56_H_._HHH_b1_07705_0001_0000400053_0000001_0 (protein)
chain: SSSSSDEVEEEIEELLEELKRLTDPEEFMELVRRVLQLVFKLGDAELLQELWELLKRFASSSSSS
B9: il10ra_site1_normal_mot_HHH_b1_03763_000000209_0001_22_38_H_._75682a83c85cb44ccff1401ed1a83487_0001_1_0001_0000400019_0000001_0 (protein)
chain: DEEREELTRELEELAPTPEVRRLLEELLEALKEGDAELVFKLVRRLIELVRDPRFAHILIELIIR
B10: il10ra_site1_normal_mot_HHH_b2_07579_000000275_0001_1_19_H_._HHH_b2_04470_0001_0000100008_0000001_0_af2pred_0001 (protein)
chain: SSSSSAAERVLELIREAIELLNNGNPEEAEKVLEEAKEIAEENNNLVLRHALKRIEEEIKSSSSS
B11: il10ra_site1_normal_mot_e1dd4851c59bc1cdde016f988f6856bd_0001_1_000000200_0001_16_31_H_._HEEHE_2724_af2_0001_0000200008_0000001_0_af2pred_dldesign_0_af2pred (protein)
chain: SKEDRFRLGVRAAAEIAGVKDVEVRIEDGVFKVTIHEDTPAAEELKRMVEYNAENLNVKVEVEIV
B12: il10ra_site1_normal_mot_HHH_b2_06977_000000171_0001_1_19_H_._HHH_b1_02027_af2_0001_0000100004_0000003_0 (protein)
chain: SSSSDEELQRALELSKEAVELALRGNEEEAQELLEEALELAERAGNERLARTIEFLLEALKSSSS
B13: il10ra_site1_normal_mot_HHH_b2_04274_000000146_0001_1_19_H_._5a9ba470ffdefe7bbe7d066b6a6aec3b_0001_af2_0001_0000200013_0000001_1_af2pred_0001 (protein)
chain: NELVKAIRLLLQRFADDPEVLRVLRRILKLSLEDPEEAVELLLELAEKLGDPEVEELAREVERRR
B14: il10ra_site1_sap_21_mot_HHH_b2_00345_af2_000000013_0001_42_56_H_._HHH_b1_01164_0001_0000400012_0000001_0_0001_af2pred_0001 (protein)
chain: SSSSSSERAVRLLIRAARILEKEGDPKRAEASLRLALAAAKLAGNPELEEEVQELLERLRSSSSS
B15: il10ra_site1_normal_mot_HHH_b2_01397_000000078_0001_23_39_H_._HHH_b1_01918_af2_0001_0000100012_0000002_0_af2pred_0001 (protein)
chain: SSSSDAEEAVRFLLKAAKQIEDEEKVKLTLRFARALAESANNEELKELIEEVEKELERLLSSSSS
B16: il10ra_site1_normal_mot_HHH_b2_00277_af2_000000172_0001_1_17_H_._HHH_b2_06211_0001_0000200017_0000001_1 (protein)
chain: SSSSSDVEERIQELLEEAKHIPDRAHRSYVLIEAYALAHQLGNPEILEEVREVAIRLVERSSSSS
B17: il10ra_site1_normal_mot_HHH_b1_05254_000000006_0001_1_19_H_._HHH_b2_03913_0001_0000100002_0000001_0 (protein)
chain: SSSSDEAYELVRKAIEEALKLYRNGNPEEAQRLIEEVIEELRELGNVAAVWAAEHVLRVLRSSSS
B18: il10ra_site1_sap_26_mot_HHH_b2_02354_af2_000000157_0001_40_56_H_._HHH_b1_06029_af2_0001_0000600025_0000002_0_0001 (protein)
chain: SSSSSSDLNREVYELSEEAFEIEDPEERRRVLEEALELAEEANNWAAAYAIRLALEDGSSSSSSS

The binders below were run against il10ra, Q13651 (assay: yeast display titration).

Row | Binder | apparent Kd
1 | B1 | inactive: no binding seen
2 | B2 | inactive: no binding seen
3 | B3 | inactive: no binding seen
4 | B4 | inactive: no binding seen
5 | B5 | inactive: no binding seen
6 | B6 | inactive: no binding seen
7 | B7 | inactive: no binding seen
8 | B8 | inactive: no binding seen
9 | B9 | inactive: no binding seen
10 | B10 | inactive: no binding seen
11 | B11 | inactive: no binding seen
12 | B12 | inactive: no binding seen
13 | B13 | inactive: no binding seen
14 | B14 | inactive: no binding seen
15 | B15 | inactive: no binding seen
16 | B16 | inactive: no binding seen
17 | B17 | inactive: no binding seen
18 | B18 | inactive: no binding seen

Copied from the list.
B13 | apparent Kd: inactive: no binding seen
B5 | apparent Kd: inactive: no binding seen
